Laboratory results: PubChem BioAssay AID1259308 (NCATS, 2017)
In all, the deposit lists about 59,000 reagents; below is a random part of them. About 1,510 of them (2.6%) count as active. 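Calls use total luciferase alone and ignore viability, so some active siRNAs may act by altering cell number.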 The numbers tell different reagents against one gene apart.

- Aim: 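Genes whose loss raises luciferase production in HEK293 cells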 (primary screen)
- Cells: human HEK293 embryonic kidney cells stably expressing firefly luciferase (HEK-CMV-Luc2-Hygro)
- Knock-down reagent: single siRNA against human genes, 0.8 pmol siRNA per well
- Time to read-out: 72 h
- Measured: 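Luciferase light (ONE-Glo) measured on one replicate plate set and viability (CellTiter-Glo) on the other, scaled to a negative control siRNA, with robust z-scores and luciferase per cell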
- Reading the numbers: total luciferase, z-score and total luciferase, % of control: higher = more reporter protein produced; luciferase per cell, z-score: higher = more reporter output per viable cell; viable cells, % of control: higher = more viable cells
- Call rule: 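Active when the median/MAD z-score for overall luciferase is greater than 3; a gene was taken forward for validation with new siRNAs if at least two of its three siRNAs passed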
- Calls: active = raised luciferase; inactive = no rise

| target | reagent no. | total luciferase, z-score | total luciferase, % of control | luciferase per cell, z-score | viable cells, % of control | Call |
| --- | --- | --- | --- | --- | --- | --- |
| RPS28 | 1 | -2.85 | 25.1 | -2.19 | 50.1 | inactive |
| RPS28 | 2 | -2.78 | 26.5 | -2.25 | 53.6 | inactive |
| RPS28 | 3 | -2.27 | 36.8 | -2.38 | 77.1 | inactive |
| VWA8 | 1 | 1.23 | 106 | 0.372 | 108 | inactive |
| VWA8 | 2 | 0.165 | 85.2 | -0.391 | 105 | inactive |
| VWA8 | 3 | 0.553 | 92.9 | 0.527 | 90.3 | inactive |
| RUNX1T1 | 1 | 0.976 | 101 | 0.938 | 88.4 | inactive |
| RUNX1T1 | 2 | 1.13 | 104 | 1.58 | 77 | inactive |
| RUNX1T1 | 3 | -0.244 | 77 | 1.03 | 65.6 | inactive |
| OR13C8 | 1 | 2.45 | 131 | 2.86 | 68.8 | inactive |
| OR13C8 | 2 | -0.269 | 76.5 | -0.222 | 90.7 | inactive |
| OR13C8 | 3 | 0.587 | 93.6 | -0.663 | 124 | inactive |
| PIP5K1C | 1 | -0.331 | 75.3 | -0.205 | 88.8 | inactive |
| PIP5K1C | 2 | -0.905 | 63.9 | -0.9 | 90.5 | inactive |
| PIP5K1C | 3 | -0.0317 | 81.3 | 0.7 | 75.5 | inactive |
| BLTP1 | 1 | -0.319 | 75.5 | -0.547 | 97.5 | inactive |
| BLTP1 | 2 | -1.11 | 59.7 | -1.61 | 102 | inactive |
| BLTP1 | 3 | -1.47 | 52.6 | -2.41 | 111 | inactive |
| GTF2H5 | 1 | -1.68 | 48.4 | -0.928 | 69.1 | inactive |
| GTF2H5 | 2 | 0.288 | 87.6 | 0.335 | 89.6 | inactive |
| GTF2H5 | 3 | -0.472 | 72.5 | -0.454 | 91.3 | inactive |

The list goes on (7 carried over from the part before).
| target | reagent no. | total luciferase, z-score | total luciferase, % of control | luciferase per cell, z-score | viable cells, % of control | Call |
| --- | --- | --- | --- | --- | --- | --- |
| PIP5K1C | 3 | -0.0317 | 81.3 | 0.7 | 75.5 | inactive |
| BLTP1 | 1 | -0.319 | 75.5 | -0.547 | 97.5 | inactive |
| BLTP1 | 2 | -1.11 | 59.7 | -1.61 | 102 | inactive |
| BLTP1 | 3 | -1.47 | 52.6 | -2.41 | 111 | inactive |
| GTF2H5 | 1 | -1.68 | 48.4 | -0.928 | 69.1 | inactive |
| GTF2H5 | 2 | 0.288 | 87.6 | 0.335 | 89.6 | inactive |
| GTF2H5 | 3 | -0.472 | 72.5 | -0.454 | 91.3 | inactive |
| RHOBTB2 | 1 | 0.31 | 88 | 0.374 | 89.2 | inactive |
| RHOBTB2 | 2 | 0.123 | 84.3 | -0.459 | 106 | inactive |
| RHOBTB2 | 3 | 2.87 | 139 | 3.46 | 62.5 | inactive |
| ASB2 | 1 | 0.752 | 96.8 | 1.22 | 78.4 | inactive |
| ASB2 | 2 | 0.433 | 90.5 | 0.833 | 81.2 | inactive |
| ASB2 | 3 | -0.931 | 63.4 | -0.602 | 83 | inactive |
| GPR85 | 1 | 0.723 | 96.3 | 0.433 | 96 | inactive |
| GPR85 | 2 | -1.28 | 56.5 | -1.56 | 95 | inactive |
| GPR85 | 3 | 0.0306 | 82.5 | -0.126 | 95.3 | inactive |
| POLA2 | 1 | -0.435 | 73.2 | -0.604 | 95.9 | inactive |
| POLA2 | 2 | -1.22 | 57.7 | -1.13 | 86.7 | inactive |
| POLA2 | 3 | -1.64 | 49.3 | -1.97 | 92.4 | inactive |
| DDB2 | 1 | 2.32 | 128 | 1.35 | 100 | inactive |
| DDB2 | 2 | -0.034 | 81.2 | -0.339 | 99.2 | inactive |
| DDB2 | 3 | -0.695 | 68.1 | -0.541 | 87.7 | inactive |
| SLIT1 | 1 | -0.0283 | 81.3 | -0.102 | 93.4 | inactive |
| SLIT1 | 2 | -0.033 | 81.2 | -0.53 | 104 | inactive |
| SLIT1 | 3 | 1.36 | 109 | 1.31 | 86.2 | inactive |
| CD72 | 1 | 0.625 | 94.3 | 0.485 | 92.8 | inactive |
| CD72 | 2 | -2.06 | 40.9 | -2.24 | 82.3 | inactive |
| CD72 | 3 | 0.787 | 97.5 | 1.28 | 77.7 | inactive |
| CST9L | 1 | 0.864 | 99.1 | 0.708 | 91.9 | inactive |
| CST9L | 2 | 0.349 | 88.8 | 0.919 | 77.9 | inactive |
| CST9L | 3 | -0.911 | 63.8 | -0.0804 | 72.8 | inactive |
| ICA1 | 1 | 0.0494 | 82.9 | 0.163 | 88.7 | inactive |
| ICA1 | 2 | -0.857 | 64.8 | -0.859 | 90.8 | inactive |
| ICA1 | 3 | -0.412 | 73.7 | 0.0108 | 82.1 | inactive |
| GEMIN5 | 1 | -0.525 | 71.5 | -0.0966 | 81.9 | inactive |
| GEMIN5 | 2 | -0.5 | 71.9 | -0.569 | 93.4 | inactive |
| GEMIN5 | 3 | 4.07 | 163 | 3.36 | 75.2 | active |
| KLRC4 | 1 | -0.0182 | 81.5 | -0.237 | 97 | inactive |
| KLRC4 | 2 | 0.509 | 92 | 0.0985 | 100 | inactive |
| KLRC4 | 3 | -0.354 | 74.8 | -0.752 | 102 | inactive |
| SPZ1 | 1 | -0.86 | 64.8 | -1.34 | 103 | inactive |
| SPZ1 | 2 | -0.488 | 72.2 | -0.656 | 95.9 | inactive |
| SPZ1 | 3 | -0.253 | 76.8 | -0.4 | 95.4 | inactive |
